Some of the results follow.
How the values were obtained:
Assay in all cases: log2 fold change, soluble protein after heating vs DMSO (PISA); higher = thermal stabilisation; K562 lysate, 10 uM; active = over 0.2 and 3.5 SD of the protein, either way, in both replicates (recomputed)
nilotinib = compound: Cc1cn(-c2cc(NC(=O)c3ccc(C)c(Nc4nccc(-c5cccnc5)n4)c3)cc(C(F)(F)F)c2)cn1 [nilotinib]
Outline: (§1)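 The values are log-two fold changes in thermal stability compared with solvent controls and come from duplicates. They were obtained by TMTpro 16plex LC-MS/MS, with channel sums equalised, on the supernatant after 21,000xg for 90 min. That supernatant came from crude K562 extract at 1 mg/mL protein treated with 10 μM compound for 30 min, heated for 3 min across 48°C-58°C, pooled and brought to 0.5% NP-40 at 4°C.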

Protein sequences, listed by entry. Tags and fused reporters are not part of them. Lines headed by an entry give the natural chain unless they say otherwise; changes in a name come on top.
UniProt Q96E29: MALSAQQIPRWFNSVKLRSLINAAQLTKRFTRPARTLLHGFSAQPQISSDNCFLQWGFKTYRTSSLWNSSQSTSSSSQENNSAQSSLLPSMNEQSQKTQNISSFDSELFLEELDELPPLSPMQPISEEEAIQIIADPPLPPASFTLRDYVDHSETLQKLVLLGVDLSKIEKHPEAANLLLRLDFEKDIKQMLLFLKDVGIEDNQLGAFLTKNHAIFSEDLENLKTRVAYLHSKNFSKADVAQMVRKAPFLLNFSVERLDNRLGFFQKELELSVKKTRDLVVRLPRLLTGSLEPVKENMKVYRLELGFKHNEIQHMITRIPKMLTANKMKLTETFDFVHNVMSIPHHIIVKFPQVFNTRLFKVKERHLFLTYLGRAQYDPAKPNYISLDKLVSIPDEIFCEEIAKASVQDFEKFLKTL
UniProt Q765P7: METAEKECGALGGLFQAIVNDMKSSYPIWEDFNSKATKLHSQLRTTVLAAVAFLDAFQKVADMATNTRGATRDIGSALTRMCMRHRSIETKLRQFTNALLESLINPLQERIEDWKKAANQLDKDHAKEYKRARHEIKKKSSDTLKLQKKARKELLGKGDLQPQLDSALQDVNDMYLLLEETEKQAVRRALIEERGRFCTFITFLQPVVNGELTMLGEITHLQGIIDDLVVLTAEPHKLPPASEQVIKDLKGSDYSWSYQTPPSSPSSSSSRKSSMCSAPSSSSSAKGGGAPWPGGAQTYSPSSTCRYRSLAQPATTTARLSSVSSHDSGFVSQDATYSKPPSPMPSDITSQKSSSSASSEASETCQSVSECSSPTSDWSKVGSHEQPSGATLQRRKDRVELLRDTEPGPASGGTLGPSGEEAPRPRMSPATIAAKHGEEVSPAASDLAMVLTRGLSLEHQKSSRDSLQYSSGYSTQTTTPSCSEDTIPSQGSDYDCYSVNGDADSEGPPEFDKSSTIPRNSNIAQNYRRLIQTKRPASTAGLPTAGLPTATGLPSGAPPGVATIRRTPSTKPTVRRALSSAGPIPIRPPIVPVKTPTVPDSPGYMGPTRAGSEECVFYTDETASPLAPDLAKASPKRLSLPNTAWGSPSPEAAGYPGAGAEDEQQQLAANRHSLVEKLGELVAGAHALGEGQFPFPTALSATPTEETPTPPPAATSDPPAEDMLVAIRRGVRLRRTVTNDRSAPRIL
UniProt Q2M296: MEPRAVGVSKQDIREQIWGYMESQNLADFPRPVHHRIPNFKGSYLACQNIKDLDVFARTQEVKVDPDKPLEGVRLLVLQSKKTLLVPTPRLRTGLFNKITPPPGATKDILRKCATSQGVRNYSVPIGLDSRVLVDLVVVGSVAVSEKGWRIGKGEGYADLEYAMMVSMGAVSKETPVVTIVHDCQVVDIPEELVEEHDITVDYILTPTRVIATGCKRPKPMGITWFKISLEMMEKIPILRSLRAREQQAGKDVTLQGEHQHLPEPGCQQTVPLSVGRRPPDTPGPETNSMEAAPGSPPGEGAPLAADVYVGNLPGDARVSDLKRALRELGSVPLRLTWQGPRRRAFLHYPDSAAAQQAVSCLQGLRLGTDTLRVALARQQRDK
UniProt Q9NVV4: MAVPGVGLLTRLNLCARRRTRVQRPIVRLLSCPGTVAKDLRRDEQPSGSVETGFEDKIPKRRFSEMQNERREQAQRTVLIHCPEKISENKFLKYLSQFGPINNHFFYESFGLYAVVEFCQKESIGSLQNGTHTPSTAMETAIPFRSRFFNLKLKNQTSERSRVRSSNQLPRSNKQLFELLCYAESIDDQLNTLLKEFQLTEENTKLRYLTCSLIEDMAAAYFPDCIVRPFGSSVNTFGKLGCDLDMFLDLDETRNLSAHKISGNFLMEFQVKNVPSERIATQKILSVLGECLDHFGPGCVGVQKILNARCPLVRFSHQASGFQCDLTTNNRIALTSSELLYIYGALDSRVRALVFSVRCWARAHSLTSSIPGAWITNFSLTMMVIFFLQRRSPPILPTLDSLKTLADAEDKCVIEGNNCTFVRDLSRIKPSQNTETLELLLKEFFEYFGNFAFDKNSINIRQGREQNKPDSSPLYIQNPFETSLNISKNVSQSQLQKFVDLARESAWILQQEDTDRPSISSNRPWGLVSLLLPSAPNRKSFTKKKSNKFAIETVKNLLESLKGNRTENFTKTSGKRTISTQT
UniProt P43246, whole entry, looked up: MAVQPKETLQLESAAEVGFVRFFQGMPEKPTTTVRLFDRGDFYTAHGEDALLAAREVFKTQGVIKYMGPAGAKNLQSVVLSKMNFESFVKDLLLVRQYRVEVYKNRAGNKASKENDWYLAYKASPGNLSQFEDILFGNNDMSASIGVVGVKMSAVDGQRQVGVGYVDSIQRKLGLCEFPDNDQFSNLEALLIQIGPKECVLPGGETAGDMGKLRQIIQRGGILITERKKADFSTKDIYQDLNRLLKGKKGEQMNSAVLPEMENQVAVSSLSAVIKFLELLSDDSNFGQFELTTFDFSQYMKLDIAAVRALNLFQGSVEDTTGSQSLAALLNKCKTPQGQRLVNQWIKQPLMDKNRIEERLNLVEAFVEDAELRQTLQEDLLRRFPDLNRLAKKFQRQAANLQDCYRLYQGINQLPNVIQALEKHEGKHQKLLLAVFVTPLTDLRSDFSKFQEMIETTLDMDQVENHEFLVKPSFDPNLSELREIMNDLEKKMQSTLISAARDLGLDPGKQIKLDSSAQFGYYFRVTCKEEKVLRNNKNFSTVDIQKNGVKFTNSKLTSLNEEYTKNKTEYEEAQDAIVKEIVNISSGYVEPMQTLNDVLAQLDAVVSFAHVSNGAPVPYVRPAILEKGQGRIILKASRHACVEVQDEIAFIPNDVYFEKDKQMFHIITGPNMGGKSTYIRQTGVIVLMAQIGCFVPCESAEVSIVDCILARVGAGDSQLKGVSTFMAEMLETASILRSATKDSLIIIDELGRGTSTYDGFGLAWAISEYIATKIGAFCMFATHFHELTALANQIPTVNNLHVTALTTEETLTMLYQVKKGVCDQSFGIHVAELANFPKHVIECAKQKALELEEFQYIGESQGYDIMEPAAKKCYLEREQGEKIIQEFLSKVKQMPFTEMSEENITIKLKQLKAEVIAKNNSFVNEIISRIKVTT
UniProt P00156: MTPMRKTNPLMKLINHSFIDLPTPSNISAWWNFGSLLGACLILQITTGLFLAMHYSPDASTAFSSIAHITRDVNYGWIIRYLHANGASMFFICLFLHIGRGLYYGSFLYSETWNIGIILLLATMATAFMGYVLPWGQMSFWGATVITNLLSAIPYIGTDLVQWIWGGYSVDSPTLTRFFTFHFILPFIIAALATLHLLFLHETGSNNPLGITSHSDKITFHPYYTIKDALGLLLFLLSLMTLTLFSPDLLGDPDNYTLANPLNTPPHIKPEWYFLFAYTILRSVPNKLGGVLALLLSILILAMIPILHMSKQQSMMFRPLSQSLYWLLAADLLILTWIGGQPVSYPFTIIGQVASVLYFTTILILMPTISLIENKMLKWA
UniProt Q9UBK8: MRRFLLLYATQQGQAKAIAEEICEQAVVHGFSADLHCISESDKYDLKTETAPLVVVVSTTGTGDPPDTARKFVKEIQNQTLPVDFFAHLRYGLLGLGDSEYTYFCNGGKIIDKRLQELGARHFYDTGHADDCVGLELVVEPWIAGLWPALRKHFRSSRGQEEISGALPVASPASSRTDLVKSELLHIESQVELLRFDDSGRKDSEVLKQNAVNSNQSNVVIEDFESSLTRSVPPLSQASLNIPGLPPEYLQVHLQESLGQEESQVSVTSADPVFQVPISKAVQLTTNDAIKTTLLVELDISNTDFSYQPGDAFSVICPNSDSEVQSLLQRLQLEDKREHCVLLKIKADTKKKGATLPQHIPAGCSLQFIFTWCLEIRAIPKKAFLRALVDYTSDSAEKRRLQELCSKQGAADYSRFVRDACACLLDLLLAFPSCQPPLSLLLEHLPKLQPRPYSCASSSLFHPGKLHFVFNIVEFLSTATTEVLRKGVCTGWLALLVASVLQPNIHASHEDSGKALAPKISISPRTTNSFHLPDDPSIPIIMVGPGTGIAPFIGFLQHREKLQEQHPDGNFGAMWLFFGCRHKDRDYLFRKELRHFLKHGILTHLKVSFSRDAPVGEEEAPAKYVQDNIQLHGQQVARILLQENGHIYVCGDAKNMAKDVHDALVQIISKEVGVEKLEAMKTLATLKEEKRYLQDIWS
UniProt P58546, whole entry, looked up: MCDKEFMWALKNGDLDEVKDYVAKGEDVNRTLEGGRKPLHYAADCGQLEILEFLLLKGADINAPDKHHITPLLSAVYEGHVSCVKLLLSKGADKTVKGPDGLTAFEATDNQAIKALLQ
UniProt Q13330: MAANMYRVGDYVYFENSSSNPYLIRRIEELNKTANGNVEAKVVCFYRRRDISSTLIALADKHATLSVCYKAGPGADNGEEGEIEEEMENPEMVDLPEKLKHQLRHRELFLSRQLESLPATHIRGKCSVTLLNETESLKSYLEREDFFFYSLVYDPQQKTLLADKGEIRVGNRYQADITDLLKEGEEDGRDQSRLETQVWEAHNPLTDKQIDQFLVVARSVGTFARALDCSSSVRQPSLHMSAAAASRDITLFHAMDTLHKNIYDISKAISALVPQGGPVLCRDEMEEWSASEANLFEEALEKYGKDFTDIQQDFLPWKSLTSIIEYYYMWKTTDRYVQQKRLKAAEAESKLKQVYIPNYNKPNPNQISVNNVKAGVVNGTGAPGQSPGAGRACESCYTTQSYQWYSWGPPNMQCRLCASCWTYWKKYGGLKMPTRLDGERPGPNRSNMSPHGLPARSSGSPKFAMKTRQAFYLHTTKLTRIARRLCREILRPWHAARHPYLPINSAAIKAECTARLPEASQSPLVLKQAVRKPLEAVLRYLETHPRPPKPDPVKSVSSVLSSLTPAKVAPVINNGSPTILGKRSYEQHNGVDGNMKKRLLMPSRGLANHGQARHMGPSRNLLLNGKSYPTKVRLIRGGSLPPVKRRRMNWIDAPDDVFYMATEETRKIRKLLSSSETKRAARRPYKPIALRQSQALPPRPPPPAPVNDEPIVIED
UniProt Q6P444: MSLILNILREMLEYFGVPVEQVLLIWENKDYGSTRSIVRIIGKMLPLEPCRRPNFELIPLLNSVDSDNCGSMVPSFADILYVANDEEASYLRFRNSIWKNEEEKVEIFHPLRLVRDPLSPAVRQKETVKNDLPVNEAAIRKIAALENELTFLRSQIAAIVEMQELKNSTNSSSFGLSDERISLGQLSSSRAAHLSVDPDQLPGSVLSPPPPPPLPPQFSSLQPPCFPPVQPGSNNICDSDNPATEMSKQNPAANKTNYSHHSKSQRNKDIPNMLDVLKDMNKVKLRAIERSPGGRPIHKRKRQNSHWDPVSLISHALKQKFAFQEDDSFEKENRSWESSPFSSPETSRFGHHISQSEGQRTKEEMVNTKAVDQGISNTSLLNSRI
UniProt P13995: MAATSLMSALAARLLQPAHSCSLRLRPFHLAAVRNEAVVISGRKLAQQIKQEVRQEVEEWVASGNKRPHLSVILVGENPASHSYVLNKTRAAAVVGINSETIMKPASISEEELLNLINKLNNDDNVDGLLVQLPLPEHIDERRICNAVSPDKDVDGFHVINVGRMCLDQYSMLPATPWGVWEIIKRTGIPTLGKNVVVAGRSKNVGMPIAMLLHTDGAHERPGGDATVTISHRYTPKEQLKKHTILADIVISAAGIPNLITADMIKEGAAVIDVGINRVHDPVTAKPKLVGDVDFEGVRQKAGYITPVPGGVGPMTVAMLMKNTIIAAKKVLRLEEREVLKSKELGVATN
UniProt P03915, whole entry, looked up: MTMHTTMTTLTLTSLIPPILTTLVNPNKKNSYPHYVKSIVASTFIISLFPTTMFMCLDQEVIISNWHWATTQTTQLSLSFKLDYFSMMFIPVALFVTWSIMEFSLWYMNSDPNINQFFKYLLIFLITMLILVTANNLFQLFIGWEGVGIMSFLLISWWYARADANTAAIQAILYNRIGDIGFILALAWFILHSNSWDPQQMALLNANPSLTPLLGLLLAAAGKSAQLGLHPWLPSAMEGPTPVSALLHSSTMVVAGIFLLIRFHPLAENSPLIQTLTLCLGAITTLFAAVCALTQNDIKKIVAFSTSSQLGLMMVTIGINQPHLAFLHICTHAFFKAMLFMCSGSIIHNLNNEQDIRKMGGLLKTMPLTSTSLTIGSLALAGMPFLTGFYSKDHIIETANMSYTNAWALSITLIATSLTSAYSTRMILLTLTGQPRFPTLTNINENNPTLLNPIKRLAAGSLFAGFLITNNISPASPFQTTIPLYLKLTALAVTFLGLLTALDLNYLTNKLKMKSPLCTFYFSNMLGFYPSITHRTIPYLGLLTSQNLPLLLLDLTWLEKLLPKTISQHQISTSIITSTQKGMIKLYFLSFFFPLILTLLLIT

[1] = compound: Cc1nc(Nc2n[nH]c3c2CN(C(=O)N[C@H](CN(C)C)c2ccccc2)C3(C)C)c2sccc2n1
Outline: as §1

dasatinib = compound: Cc1nc(Nc2ncc(C(=O)Nc3c(C)cccc3Cl)s2)cc(N2CCN(CCO)CC2)n1 [dasatinib]
Outline: as §1

[2] = compound: Cc1ncc(-c2ccnc(Nc3ccc(S(C)(=O)=O)cc3)n2)n1C(C)C
Outline: as §1

[3] = compound: Cn1cc(-c2ccc3c(c2)CCN3C(=O)Cc2cccc(C(F)(F)F)c2)c2c(N)ncnc21
Outline: as §1

quisinostat = compound: Cn1cc(CNCC2CCN(c3ncc(C(=O)NO)cn3)CC2)c2ccccc21 [quisinostat]
Outline: as §1

tipifarnib = compound: Cn1cncc1[C@@](N)(c1ccc(Cl)cc1)c1ccc2c(c1)c(-c1cccc(Cl)c1)cc(=O)n2C [tipifarnib]
Outline: as §1

[4] = compound: NC(=O)Nc1cc(-c2cccc(F)c2)sc1C(=O)N[C@H]1CCCNC1
Outline: as §1

[5] = compound: NC(=O)c1cnc(N[C@@H]2CCCC[C@@H]2N)nc1Nc1cccc(-n2nccn2)c1
Outline: as §1

[6] = compound: NC1(c2ccc(-c3nc4ccn5c(=O)[nH]nc5c4cc3-c3ccccc3)cc2)CCC1
Outline: as §1

[7] = compound: NCC(=O)Nc1ccc(-n2nc(C(F)(F)F)cc2-c2ccc3c(ccc4ccccc43)c2)cc1
Outline: as §1

vorinostat = compound: O=C(CCCCCCC(=O)Nc1ccccc1)NO [vorinostat]
Outline: as §1

silmitasertib = compound: O=C(O)c1ccc2c(c1)nc(Nc1cccc(Cl)c1)c1ccncc12 [silmitasertib]
Outline: as §1

[8] = compound: O=C1NC(=O)C(c2cnc3ccccn23)=C1c1cn2c3c(cc(F)cc13)CN(C(=O)N1CCCCC1)CC2
Outline: as §1

entospletinib = compound: c1cn2cc(-c3ccc4cn[nH]c4c3)nc(Nc3ccc(N4CCOCC4)cc3)c2n1 [entospletinib]
Outline: as §1

Row | Target | log2 fold change (nilotinib) | log2 fold change [1] | log2 fold change (dasatinib) | log2 fold change [2] | log2 fold change [3] | log2 fold change (quisinostat) | log2 fold change (tipifarnib) | log2 fold change [4] | log2 fold change [5] | log2 fold change [6] | log2 fold change [7] | log2 fold change (vorinostat) | log2 fold change (silmitasertib) | log2 fold change [8] | log2 fold change (entospletinib)
1 | MTERF3 (UniProt Q96E29) | inactive: -0.014 | inactive: -0.073 | inactive: -0.14 | inactive: -0.004 | inactive: 0.063 | inactive: -0.037 | inactive: -0.004 | inactive: 0.025 | inactive: 0.008 | inactive: -0.198 | inactive: -0.027 | inactive: 0 | inactive: 0.07 | inactive: 0.005 | inactive: 0.048
2 | MTSS2 (UniProt Q765P7) | inactive: -0.092 | inactive: 0.03 | inactive: 0.017 | inactive: 0.06 | inactive: 0.036 | inactive: 0.043 | inactive: -0.02 | inactive: -0.01 | inactive: 0.012 | inactive: 0.011 | inactive: 0.009 | inactive: -0.081 | inactive: -0.031 | inactive: -0.02 | inactive: -0.036
3 | MTHFSD isoform 3 (UniProt Q2M296) | inactive: 0.139 | inactive: 0.095 | inactive: 0.03 | inactive: -0.01 | inactive: -0.029 | inactive: -0.005 | inactive: -0.125 | inactive: 0.053 | inactive: -0.025 | inactive: 0.047 | inactive: -0.062 | inactive: -0.056 | inactive: -0.029 | inactive: 0 | 
4 | MTPAP (UniProt Q9NVV4) | inactive: -0.035 | inactive: 0.012 | inactive: -0.063 | inactive: 0.012 | inactive: 0.093 | inactive: 0.04 | inactive: 0.071 | inactive: -0.003 | inactive: -0.005 | inactive: 0.02 | inactive: 0.008 | inactive: -0.263 | inactive: -0.027 | inactive: 0.02 | inactive: 0.141
5 | MSH2 (UniProt P43246) | inactive: -0.005 | inactive: -0.008 | inactive: -0.038 | inactive: -0.01 | inactive: 0.01 | inactive: -0.08 | inactive: 0.004 | inactive: 0.046 | inactive: 0.016 | inactive: -0.017 | inactive: 0.006 | active: -0.287 | inactive: 0.027 | inactive: -0.022 | inactive: 0.034
6 | MRPL44 (UniProt Q9H9J2) | inactive: 0.034 | inactive: -0.069 | inactive: -0.014 | inactive: -0.021 | inactive: 0.019 | inactive: -0.02 | inactive: 0.012 | inactive: 0.015 | inactive: 0.003 | inactive: -0.016 | inactive: -0.017 | inactive: -0.017 | inactive: 0.004 | inactive: 0.053 | inactive: 0.019
7 | MRPL35 (UniProt Q9NZE8) | inactive: 0.05 | inactive: -0.027 | inactive: 0.062 | inactive: 0.049 | inactive: -0.028 | inactive: 0.004 | inactive: -0.037 | inactive: -0.034 | inactive: -0.007 | inactive: 0.056 | inactive: -0.229 | inactive: -0.159 | inactive: 0.04 | inactive: 0.013 | 
8 | MT-CYB (UniProt P00156) | inactive: 0.063 | inactive: -0.081 | inactive: 0.16 | inactive: 0.011 | inactive: 0 | inactive: -0.131 | inactive: -0.184 | inactive: -0.003 | inactive: -0.037 | inactive: -0.06 | inactive: -0.064 | inactive: 0.158 | inactive: 0.031 | inactive: 0.118 | inactive: 0.174
9 | MRPS25 (UniProt P82663) | inactive: 0.019 | inactive: -0.001 | inactive: -0.015 | inactive: 0.018 | inactive: 0.042 | inactive: 0.013 | inactive: -0.006 | inactive: 0.036 | inactive: 0.027 | inactive: -0.091 | inactive: -0.054 | inactive: -0.082 | inactive: 0.048 | inactive: -0.069 | inactive: -0.022
10 | MRPS34 (UniProt P82930) | inactive: 0.043 | inactive: -0.052 | inactive: -0.023 | inactive: -0.068 | inactive: 0.02 | inactive: 0.05 | inactive: -0.01 | inactive: 0 | inactive: -0.02 | inactive: -0.039 | inactive: -0.035 | inactive: -0.32 | inactive: -0.004 | inactive: 0.009 | inactive: -0.02
11 | MSH6 (UniProt P52701) | inactive: -0.005 | inactive: 0.011 | inactive: -0.073 | inactive: -0.002 | inactive: 0.03 | inactive: -0.091 | inactive: -0.009 | inactive: 0.072 | inactive: 0.006 | inactive: -0.045 | inactive: 0.008 | active: -0.287 | inactive: 0.063 | inactive: 0.016 | inactive: -0.012
12 | MTRR isoform 1 (UniProt Q9UBK8) | inactive: 0.017 | inactive: -0.017 | inactive: 0.041 | inactive: 0.006 | inactive: 0.027 | inactive: -0.02 | inactive: 0.01 | inactive: 0.027 | inactive: 0.002 | inactive: 0.017 | inactive: 0.052 | inactive: -0.036 | inactive: -0.001 | inactive: 0.044 | inactive: 0.021
13 | MRPL28 (UniProt Q13084) | inactive: 0.03 | inactive: -0.111 | inactive: -0.013 | inactive: -0.037 | inactive: 0.051 | inactive: -0.031 | inactive: 0.149 | inactive: 0.057 | inactive: 0.015 | inactive: -0.058 | inactive: 0.002 | inactive: -0.037 | inactive: 0.022 | inactive: 0.044 | inactive: 0.129
14 | MRPS6 (UniProt P82932) | inactive: -0.004 | inactive: -0.003 | inactive: -0.027 | inactive: -0.096 | inactive: 0 | inactive: -0.082 | inactive: -0.044 | inactive: 0.028 | inactive: -0.01 | inactive: 0.05 | inactive: 0.011 | inactive: -0.177 | inactive: 0.032 | inactive: 0.012 | inactive: -0.015
15 | MTPN (UniProt P58546) | inactive: 0.074 | inactive: 0.01 | inactive: 0.04 | inactive: 0.054 | inactive: -0.036 | inactive: 0.057 | inactive: -0.019 | inactive: -0.047 | inactive: -0.018 | inactive: 0.029 | inactive: -0.098 | inactive: 0.088 | inactive: -0.011 | inactive: 0.032 | inactive: -0.062
16 | MRPL55 isoform 2 (UniProt Q7Z7F7) | inactive: 0.099 | inactive: 0.008 | inactive: -0.067 | inactive: -0.073 | inactive: 0.05 | inactive: -0.017 | inactive: 0.04 | inactive: 0.133 | inactive: -0.021 | inactive: -0.039 | inactive: 0.027 | inactive: 0.036 | inactive: 0.081 | inactive: 0.015 | inactive: -0.021
17 | MTA1 (UniProt Q13330) | inactive: 0.042 | inactive: 0.01 | inactive: -0.023 | inactive: 0.033 | inactive: 0.005 | inactive: -0.089 | inactive: -0.03 | inactive: 0.052 | inactive: -0.033 | inactive: -0.004 | inactive: -0.005 | active: -0.212 | inactive: -0.037 | inactive: 0.016 | inactive: -0.036
18 | MTFR2 (UniProt Q6P444) | inactive: 0.083 | inactive: -0.042 | inactive: -0.047 | inactive: 0.072 | inactive: 0.006 | inactive: -0.056 | inactive: -0.004 | inactive: 0.026 | inactive: -0.069 | inactive: 0.035 | inactive: 0.05 | inactive: -0.197 | inactive: 0.007 | inactive: -0.032 | inactive: 0.043
19 | MTHFD2 (UniProt P13995) | inactive: 0.011 | inactive: -0.018 | inactive: -0.025 | inactive: 0.003 | inactive: 0.02 | inactive: -0.019 | inactive: -0.016 | inactive: 0.024 | inactive: 0.002 | inactive: 0.017 | inactive: -0.01 | inactive: -0.059 | inactive: -0.003 | inactive: 0.011 | inactive: 0.016
20 | MRPL43 isoform 4 (UniProt Q8N983) | inactive: 0.015 | inactive: -0.107 | inactive: -0.006 | inactive: 0.018 | inactive: 0.024 | inactive: 0.003 | inactive: -0.119 | inactive: -0.041 | inactive: 0.003 | inactive: -0.002 | inactive: 0.001 | inactive: 0.042 | inactive: -0.017 | inactive: 0.005 | inactive: 0
21 | MT-ND5 (UniProt P03915) | inactive: 0.058 | inactive: 0.056 | inactive: 0.061 | inactive: -0.026 | inactive: 0.005 | inactive: 0.019 | inactive: 0.016 | inactive: -0.018 | inactive: -0.026 | inactive: 0 | inactive: 0.063 | inactive: 0.136 | inactive: -0.021 | inactive: 0.03 | inactive: 0.004

Reformatted with tabs: part of the list above
Row	Target	log2 fold change (nilotinib)	log2 fold change [1]	log2 fold change (dasatinib)	log2 fold change [2]	log2 fold change [3]	log2 fold change (quisinostat)	log2 fold change (tipifarnib)	log2 fold change [4]	log2 fold change [5]	log2 fold change [6]	log2 fold change [7]	log2 fold change (vorinostat)	log2 fold change (silmitasertib)	log2 fold change [8]	log2 fold change (entospletinib)
11	MSH6 (UniProt P52701)	inactive: -0.005	inactive: 0.011	inactive: -0.073	inactive: -0.002	inactive: 0.03	inactive: -0.091	inactive: -0.009	inactive: 0.072	inactive: 0.006	inactive: -0.045	inactive: 0.008	active: -0.287	inactive: 0.063	inactive: 0.016	inactive: -0.012
12	MTRR isoform 1 (UniProt Q9UBK8)	inactive: 0.017	inactive: -0.017	inactive: 0.041	inactive: 0.006	inactive: 0.027	inactive: -0.02	inactive: 0.01	inactive: 0.027	inactive: 0.002	inactive: 0.017	inactive: 0.052	inactive: -0.036	inactive: -0.001	inactive: 0.044	inactive: 0.021
